Results taken from paper PMC5126104, “Identification of a Chemoreceptor in Pseudomonas aeruginosa That Specifically Mediates Chemotaxis Toward α-Ketoglutarate” (Frontiers in Microbiology, 2016).
These are yes or no findings as the source states them, for the method shown. Some entries that bind do so weakly or less than the wild type.

Biological target: McpK ligand binding domain (McpK-LBD) (Pseudomonas aeruginosa PAO1) (UniProt Q9HUB1)
Assay: AUC; sedimentation velocity, ligand-free McpK-LBD (10-50 uM), 7 °C, 5 mM Tris, 5 mM PIPES, 5 mM MES, pH 8.0; c(s) analysis in SEDFIT; both purified

binding: binds
B1: McpK ligand binding domain (McpK-LBD) (domain or fragment, Pseudomonas aeruginosa PAO1, UniProt Q9HUB1 38-293, looked up)
chain: RTLTHQTALSEQLAEVASLMEQTQQAEQGRLAFEAGSDPRQAEQVRQTLAGMLQRLQALRDSELDPAALAHQVEAIEAYRKAFDDLAAADQQRSAARGVLVGTAQQALDSFARLEELMDASLAQQAGDPQALQRSRAVADLHQQLLMVRYQVRGYVFERSDKAEQAAFAAFDALRQAATTLRGQLPGEADAALEQAMGSLQGYRGGIEQFRAGVIRTRQAQQAMQSSTQDMARAGRTLTEAGRQLRESTASRDRAS
notes: No removal of the tag is described; In monomer-dimer equilibrium by AUC; also called PA5072-LBD; source: E. coli BL21 (DE3), pET28-McpK-LBD, purified (HisTrap column)
